Results are given in words; binding and its absence hold for the method and conditions named. Some entries that bind do so weakly or less than the wild type. Where a sequence is shown, tags or fusion partners need not be part of it.
Target: T1, ScOrc1-TEV-His (S. cerevisiae), P54784
T1 chain: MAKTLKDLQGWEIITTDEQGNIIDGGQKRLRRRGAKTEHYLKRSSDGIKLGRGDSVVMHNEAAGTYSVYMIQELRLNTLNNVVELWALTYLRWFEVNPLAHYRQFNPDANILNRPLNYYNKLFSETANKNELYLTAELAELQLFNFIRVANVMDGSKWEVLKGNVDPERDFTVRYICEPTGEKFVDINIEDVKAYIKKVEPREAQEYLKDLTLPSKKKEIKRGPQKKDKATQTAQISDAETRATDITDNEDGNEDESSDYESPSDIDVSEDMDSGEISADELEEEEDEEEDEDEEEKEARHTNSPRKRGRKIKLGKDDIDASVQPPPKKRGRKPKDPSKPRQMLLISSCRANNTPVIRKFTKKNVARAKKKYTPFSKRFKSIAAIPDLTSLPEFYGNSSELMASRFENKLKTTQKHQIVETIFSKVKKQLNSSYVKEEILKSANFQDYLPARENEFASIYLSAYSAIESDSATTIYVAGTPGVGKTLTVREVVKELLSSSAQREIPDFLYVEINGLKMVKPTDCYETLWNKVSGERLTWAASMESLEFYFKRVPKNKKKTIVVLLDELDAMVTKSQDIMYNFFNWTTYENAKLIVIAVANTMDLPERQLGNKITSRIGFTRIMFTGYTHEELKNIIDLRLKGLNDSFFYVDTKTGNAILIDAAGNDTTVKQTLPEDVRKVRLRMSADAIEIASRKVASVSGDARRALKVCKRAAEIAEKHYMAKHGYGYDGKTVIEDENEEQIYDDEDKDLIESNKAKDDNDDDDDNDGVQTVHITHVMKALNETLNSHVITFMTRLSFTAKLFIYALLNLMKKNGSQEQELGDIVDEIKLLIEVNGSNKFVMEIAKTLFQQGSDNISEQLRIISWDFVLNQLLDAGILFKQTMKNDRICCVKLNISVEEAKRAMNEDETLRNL
Assay: co-purification (affinity column, then gel filtration); Orc1-TEV-His co-overexpressed with Orc2/3/4/5/6 in 293T cells; affinity-purified, fractionated on Superdex 200; fractions on 9% SDS-PAGE, Coomassie staining
Conditions: remark: other sources report otherwise

B1: ScOrc2, P32833 1-620 (protein)
chain: MLNGEDFVEHNDILSSPAKSRNVTPKRVDPHGERQLRRIHSSKKNLLERISLVGNERKNTSPDPALKPKTPSKAPRKRGRPRKIQEELTDRIKKDEKDTISSKKKRKLDKDTSGNVNEESKTSNNKQVMEKTGIKEKREREKIQVATTTYEDNVTPQTDDNFVSNSPEPPEPATPSKKSLTTNHDFTSPLKQIIMNNLKEYKDSTSPGKLTLSRNFTPTPVPKNKKLYQTSETKSASSFLDTFEGYFDQRKIVRTNAKSRHTMSMAPDVTREEFSLVSNFFNENFQKRPRQKLFEIQKKMFPQYWFELTQGFSLLFYGVGSKRNFLEEFAIDYLSPKIAYSQLAYENELQQNKPVNSIPCLILNGYNPSCNYRDVFKEITDLLVPAELTRSETKYWGNHVILQIQKMIDFYKNQPLDIKLILVVHNLDGPSIRKNTFQTMLSFLSVIRQIAIVASTDHIYAPLLWDNMKAQNYNFVFHDISNFEPSTVESTFQDVMKMGKSDTSSGAEGAKYVLQSLTVNSKKMYKLLIETQMQNMGNLSANTGPKRGTQRTGVELKLFNHLCAADFIASNEIALRSMLREFIEHKMANITKNNSGMEIIWVPYTYAELEKLLKTVLNTL
Q: B1 was tested. Which binding did it give?
A: binds

B2: ScOrc6, P38826 1-435 (protein)
chain: MSMQQVQHCVAEVLRLDPQEKPDWSSGYLKKLTNATSILYNTSLNKVMLKQDEEVARCHICAYIASQKMNEKHMPDLCYYIDSIPLEPKKAKHLMNLFRQSLSNSSPMKQFAWTPSPKKNKRSPVKNGGRFTSSDPKELRNQLFGTPTKVRKSQNNDSFVIPELPPMQTNESPSITRRKLAFEEDEDEDEEEPGNDGLSLKSHSNKSITGTRNVDSDEYENHESDPTSEEEPLGVQESRSGRTKQNKAVGKPQSELKTAKALRKRGRIPNSLLVKKYCKMTTEEIIRLCNDFELPREVAYKIVDEYNINASRLVCPWQLVCGLVLNCTFIVFNERRRKDPRIDHFIVSKMCSLMLTSKVDDVIECVKLVKELIIGEKWFRDLQIRYDDFDGIRYDEIIFRKLGSMLQTTNILVTDDQYNIWKKRIEMDLALTEPL
Q: B2 was tested. Which binding did it give?
A: binds
